Assay results taken from patent US20060058286A1, “Methods of treating HIV infection” (priority 2004, published 2006).
At least one structure is not confirmed: it was looked up by name or label, or the drawing left a doubt.

Tested on: HIV-1 NL4-3
Test: Two-drug combination study with Compound 1 (combination indices)
Format: cell-based
Details: for Overall Result: overall antiviral effect of the two-drug combination with Compound 1, all ratios and effective levels
Protocol: Virus and cell lines. The T-cell line, MT-2 was obtained through the AIDS Research and Reference Reagent Program, NIAID and was contributed by Dr. D. Richman. The cell line was cultured in RPMI 1640 medium supplemented with 10% fetal bovine serum, 2 mM L-glutamine and sub-cultured twice a week. The NL4-3 strain of HIV-1 was obtained from the AIDS Research and Reference Reagent Program. Both virus stocks were amplified and titered in MT-2 cells using a virus infectivity assay.
Drug Susceptibility and Cytotoxicity Assays. For drug susceptibility assays, MT-2 cells were infected with HIV-1 NL4-3 at an MOI of 0.001, and seeded into 96-well microtiter plates (2.5×10^5 cells/ml) containing serial dilutions of test compounds. […] Each drug ratio consisted of an array of 3-fold serial dilutions, and was performed in quadruplicate. The plates were incubated at 37° C./5% CO2. The MT-2 cells infected with HIV-1 NL4-3 were incubated for 5 days. On day-five post-infection, 20 μl from each well was harvested and quantitated by a reverse transcriptase (RT) assay or an MTS assay. Cytotoxicity assays were performed using uninfected cells, exposed to the same drug combinations, and incubated for five days. Cell viability was determined by an XTT assay. The CC50 values were calculated by using the exponential form of the median effect equation as mentioned below for calculation of EC50.
Analysis of Drug Combination Effects. For determination of CI values, drugs were diluted in a fixed ratio and multiple ratios were analyzed. The drug serial dilutions spanned a range of concentrations near the EC50 value of each compound, so that equivalent antiviral activities could be compared. Concentration-response curves were estimated for each individual drug and every combination using the median-effect equation. The equation was fit using a nonlinear regression routine (Proc Nlin) in PC SAS version 8.01 (SAS Institute Inc., SAS Version 8.01, Cary, N.C.: SAS Institute Inc., 1990).
In this equation, Fa stands for “fraction affected,” and represents the fraction of the viral load that has been inactivated.
To assess antiviral effects of different drug combination treatments, combination indices (CIs) were calculated according to Chou and Rideout. The combination index was computed as CI=[D]1/[Dm]1+[D]2/[Dm]2
In this equation [Dm]1 and [Dm]2 are the concentrations of drugs that would individually produce a specific level of effect, while [D]1 and [D]2 are the concentrations of drugs in combination that would produce the same level of effect.
Theoretically, additivity is implied if the CI is equal to one, synergy if the CI is less than one, and antagonism if the CI is greater than one. […] At best, we can construct a range that contains the likely values for the CI, given the noise in the data. […]

Nc1ccn([C@@H]2CS[C@H](CO)O2)c(=O)n1 [Lamivudine, lamivudine]
combination effect at the 1:1 and 0.04:1 molar ratios (combination with Compound 1): synergy
combination effect at the 2.5:1 molar ratio (combination with Compound 1): bias toward additivity
Overall Result: Additive-
Overall Result (listed as lamivudine): additive-synergistic
